Read-outs that look alike come from different tables or passages of the source. No constants are given. Whether binding was seen depends on the method and setting. For part of these data: In cells and extracts the contact can be indirect. Some results given as binding are weak or reduced against the parent protein; the word gives no strength. For part of these data: Sequences can lack the tags named with a protein.
Experiments:
[1] = target: cannabinoid type 1 receptor (CB1R), endogenous in mouse cerebral cortex synaptosomes (mouse (endogenous in cerebral cortex)) (UniProt P47746); test: co-IP; mouse cortical synaptosomal fraction, Nonidet P-40 solubilized; GPCR immunoprecipitated overnight at 4°C with biotin-conjugated IgG against its extracellular sequence; co-precipitated NR1 (C1) and HINT1 by Western blot; mice treated icv with saline, morphine 10 nmol, fenfluramine 10 nmol or S1RA 3 nmol
[2] = target: mu opioid receptor (MOR), endogenous in mouse cerebral cortex synaptosomes (mouse (endogenous in cerebral cortex)) (UniProt P42866); test: as above
[3] = target: serotonin 5HT1A receptor (5HT1AR), endogenous in mouse cerebral cortex synaptosomes (mouse (endogenous in cerebral cortex)) (UniProt Q64264); test: as above
[4] = target: serotonin 5HT2A receptor (5HT2AR), endogenous in mouse cerebral cortex synaptosomes (mouse (endogenous in cerebral cortex)) (UniProt P35363); test: as above
[5] = target: C-terminal region of the glutamate receptor NMDAR1 (residues 834-938), C0-C1-C2, GST-tagged, covalently coupled to NHS-activated Sepharose (mouse) (UniProt P35438); test: pull-down; NR1 C-terminal sequence covalently coupled to NHS-activated Sepharose 4FF; 100 nM σ1R, 20 min at RT, 50 mM Tris-HCl pH 7.4, 0.2% CHAPS, 2.5 mM CaCl2; three washes; bound σ1R by Western blot; then exposed to σ1R ligands (progesterone, S1RA, fenfluramine, norfenfluramine, PPCC); both purified
[6] = target: cannabinoid type 1 receptor (CB1R), endogenous in mouse cerebral cortex synaptosomes (mouse (endogenous in cerebral cortex)) (UniProt P47746); test: co-IP; mouse cortical synaptosomal fraction, Nonidet P-40 solubilized; GPCR immunoprecipitated overnight at 4°C with biotin-conjugated IgG against its extracellular sequence; co-precipitated NR1 (C1) and HINT1 by Western blot; mice treated icv with saline, morphine 10 nmol, fenfluramine 10 nmol or S1RA 3 nmol; remark: listed apart in the source
[7] = target: mu opioid receptor (MOR), endogenous in mouse cerebral cortex synaptosomes (mouse (endogenous in cerebral cortex)) (UniProt P42866); test: as above; remark: listed apart in the source
[8] = target: serotonin 5HT1A receptor (5HT1AR), endogenous in mouse cerebral cortex synaptosomes (mouse (endogenous in cerebral cortex)) (UniProt Q64264); test: as above; remark: listed apart in the source
[9] = target: serotonin 5HT2A receptor (5HT2AR), endogenous in mouse cerebral cortex synaptosomes (mouse (endogenous in cerebral cortex)) (UniProt P35363); test: as above; remark: listed apart in the source

The chains behind the UniProt entries cited, without tags or fusion partners.
UniProt P42866: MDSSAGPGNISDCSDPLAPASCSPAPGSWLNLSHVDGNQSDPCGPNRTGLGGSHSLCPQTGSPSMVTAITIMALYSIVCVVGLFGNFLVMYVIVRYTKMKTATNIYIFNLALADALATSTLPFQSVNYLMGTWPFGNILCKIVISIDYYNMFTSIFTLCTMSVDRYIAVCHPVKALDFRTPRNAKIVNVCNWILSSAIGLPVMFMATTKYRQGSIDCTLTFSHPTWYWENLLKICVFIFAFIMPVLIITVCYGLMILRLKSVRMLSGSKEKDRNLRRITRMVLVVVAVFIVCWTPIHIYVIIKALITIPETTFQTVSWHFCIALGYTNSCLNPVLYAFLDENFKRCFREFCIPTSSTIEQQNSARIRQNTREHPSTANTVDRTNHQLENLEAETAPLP
UniProt Q64264: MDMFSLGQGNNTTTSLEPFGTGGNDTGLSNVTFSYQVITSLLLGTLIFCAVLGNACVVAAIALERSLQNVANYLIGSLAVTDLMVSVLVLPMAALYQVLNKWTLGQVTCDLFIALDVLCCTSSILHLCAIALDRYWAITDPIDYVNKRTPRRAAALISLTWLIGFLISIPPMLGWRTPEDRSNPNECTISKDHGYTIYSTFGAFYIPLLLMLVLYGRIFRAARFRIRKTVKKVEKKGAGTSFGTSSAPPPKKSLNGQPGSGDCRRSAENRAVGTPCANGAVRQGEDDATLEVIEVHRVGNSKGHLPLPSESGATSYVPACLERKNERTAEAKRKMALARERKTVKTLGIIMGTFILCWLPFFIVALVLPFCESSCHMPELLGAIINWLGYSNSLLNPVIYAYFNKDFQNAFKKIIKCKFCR
UniProt P35363: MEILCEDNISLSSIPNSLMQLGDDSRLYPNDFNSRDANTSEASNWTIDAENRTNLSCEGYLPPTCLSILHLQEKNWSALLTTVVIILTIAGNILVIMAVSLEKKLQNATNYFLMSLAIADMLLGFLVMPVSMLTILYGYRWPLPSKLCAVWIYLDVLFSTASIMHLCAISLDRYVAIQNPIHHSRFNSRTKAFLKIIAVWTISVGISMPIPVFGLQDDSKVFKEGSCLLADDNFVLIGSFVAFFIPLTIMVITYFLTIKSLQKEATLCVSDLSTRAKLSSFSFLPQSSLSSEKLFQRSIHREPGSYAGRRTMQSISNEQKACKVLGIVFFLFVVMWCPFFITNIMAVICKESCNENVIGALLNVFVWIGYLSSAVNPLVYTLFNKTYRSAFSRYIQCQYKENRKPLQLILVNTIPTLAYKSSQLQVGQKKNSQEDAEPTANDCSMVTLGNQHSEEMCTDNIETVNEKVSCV
UniProt O55242: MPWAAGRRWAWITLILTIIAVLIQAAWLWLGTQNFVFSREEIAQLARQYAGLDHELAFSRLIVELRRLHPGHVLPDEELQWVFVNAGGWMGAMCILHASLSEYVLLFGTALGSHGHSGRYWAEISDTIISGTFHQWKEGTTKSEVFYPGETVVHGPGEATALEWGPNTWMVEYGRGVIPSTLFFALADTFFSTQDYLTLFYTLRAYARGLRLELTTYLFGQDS

Measured: binding

NMDAR NR1 subunit, endogenous in mouse cerebral cortex synaptosomes (from UniProt P35438-1 19-938) (receptor)
binds: [1] | [2] | [3] | [4]

sigma receptor type 1 (σ1R), murine full-length (1-223), recombinant, GST-free (from UniProt O55242 1-223)
binds: [5]

B1: histidine triad nucleotide-binding protein 1 (HINT1), endogenous in mouse cerebral cortex synaptosomes (protein, UniProt P70349 1-126)
chain: MADEIAKAQVAQPGGDTIFGKIIRKEIPAKIIFEDDRCLAFHDISPQAPTHFLVIPKKHISQISVADDDDESLLGHLMIVGKKCAADLGLKRGYRMVVNEGADGGQSVYHIHLHVLGGRQMNWPPG
binds: [6] | [7] | [8] | [9]
